Measurements reported in patent publication US20250283871A1, “COMPOSITIONS AND METHODS FOR MODULATING THE INTERACTION BETWEEN SS18-SSX FUSION ONCOPROTEIN AND NUCLEOSOMES” (Dana-Farber Cancer Institute, Inc., priority 2020, published 2025).

B1: AASS (protein, UniProt Q9UDR5 28-926, looked up)
Alpha-aminoadipic …: VRREDVNAWERRAPLAPKHIKGITNLGYKVLIQPSNRRAIHDKDYVKAGGILQEDISEACLILGVKRPPEEKLMSRKTYAFFSHTIKAQEANMGLLDEILKQEIRLIDYEKMVDHRGVRVVAFGQWAGVAGMINILHGMGLRLLALGHHTPFMHIGMAHNYRNSSQAVQAVRDAGYEISLGLMPKSIGPLTFVFTGTGNVSKGAQAIFNELPCEYVEPHELKEVSQTGDLRKVYGTVLSRHHHLVRKTDAVYDPAEYDKHPERYISRFNTDIAPYTTCLINGIYWEQNTPRLLTRQDAQSLLAPGKFSPAGVEGCPALPHKLVAICDISADTGGSIEFMTECTTIEHPFCMYDADQHIIHDSVEGSGILMCSIDNLPAQLPIEATECFGDMLYPYVEEMILSDATQPLESQNFSPVVRDAVITSNGTLPDKYKYIQTLRESRERAQSLSMGTRRKVLVLGSGYISEPVLEYLSRDGNIEITVGSDMKNQIEQLGKKYNINPVSMDICKQEEKLGFLVAKQDLVISLLPYVLHPLVAKACITNKVNMVTASYITPALKELEKSVEDAGITIIGELGLDPGLDHMLAMETIDKAKEVGATIESYISYCGGLPAPEHSNNPLRYKFSWSPVGVLMNVMQSATYLLDGKVVNVAGGISFLDAVTSMDFFPGLNLEGYPNRDSTKYAEIYGISSAHTLLRGTLRYKGYMKALNGFVKLGLINREALPAFRPEANPLTWKQLLCDLVGISPSSEHDVLKEAVLKKLGGDNTQLEAAEWLGLLGDEQVPQAESILDALSKHLVMKLSYGPEEKDMIVMRDSFGIRHPSGHLEHKTIDLVAYGDINGFSAMAKTVGLPTAMAAKMLLDGEIGAKGLMGPFSKEIYGPILERIKAEGIIYTTQSTIKP
B2: AAAS (protein, UniProt Q9NRG9 2-546, looked up)
Aladin: CSLGLFPPPPPRGQVTLYEHNNELVTGSSYESPPPDFRGQWINLPVLQLTKDPLKTPGRLDHGTRTAFIHHREQVWKRCINIWRDVGLFGVLNEIANSEEEVFEWVKTASGWALALCRWASSLHGSLFPHLSLRSEDLIAEFAQVTNWSSCCLRVFAWHPHTNKFAVALLDDSVRVYNASSTIVPSLKHRLQRNVASLAWKPLSASVLAVACQSCILIWTLDPTSLSTRPSSGCAQVLSHPGHTPVTSLAWAPSGGRLLSASPVDAAIRVWDVSTETCVPLPWFRGGGVTNLLWSPDGSKILATTPSAVFRVWEAQMWTCERWPTLSGRCQTGCWSPDGSRLLFTVLGEPLIYSLSFPERCGEGKGCVGGAKSATIVADLSETTIQTPDGEERLGGEAHSMVWDPSGERLAVLMKGKPRVQDGKPVILLFRTRNSPVFELLPCGIIQGEPGAQPQLITFHPSFNKGALLSVGWSTGRIAHIPLYFVNAQFPRFSPVLGRAQEPPAGGGGSIHDLPLFTETSPTSAPWDPLPGPPPVLPHSPHSHL
B3: PDHA1 (protein, UniProt P08559 30-390, looked up)
Pyruvate dehydrogenase E1 …: FANDATFEIKKCDLHRLEEGPPVTTVLTREDGLKYYRMMQTVRRMELKADQLYKQKIIRGFCHLCDGQEACCVGLEAGINPTDHLITAYRAHGFTFTRGLSVREILAELTGRKGGCAKGKGGSMHMYAKNFYGGNGIVGAQVPLGAGIALACKYNGKDEVCLTLYGDGAANQGQIFEAYNMAALWKLPCIFICENNRYGMGTSVERAAASTDYYKRGDFIPGLRVDGMDILCVREATRFAAAYCRSGKGPILMELQTYRYHGHSMSDPGVSYRTREEIQEVRSKSDPIMLLKDRMVNSNLASVEELKEIDVEVRKEIEDAAQFATADPEPPLEELGYHIYSSDPPFEVRGANQWIKFKSVS
B4: SLC25A22 (protein, UniProt Q9H936 1-323, looked up)
Mitochondrial glutamate …: MADKQISLPAKLINGGIAGLIGVTCVFPIDLAKTRLQNQQNGQRVYTSMSDCLIKTVRSEGYFGMYRGAAVNLTLVTPEKAIKLAANDFFRHQLSKDGQKLTLLKEMLAGCGAGTCQVIVTTPMEMLKIQLQDAGRIAAQRKILAAQGQLSAQGGAQPSVEAPAAPRPTATQLTRDLLRSRGIAGLYKGLGATLLRDVPFSVVYFPLFANLNQLGRPASEEKSPFYVSFLAGCVAGSAAAVAVNPCDVVKTRLQSLQRGVNEDTYSGILDCARKILRHEGPSAFLKGAYCRALVIAPLFGIAQVVYFLGIAESLLGLLQDPQA
B5: NLRX1 (protein, UniProt Q86UT6 87-975, looked up)
NLR family member X1: AEWFSRLPREERQFGPTFALDTVHVDPVIRESTPDELLRPPAELALEHQPPQAGLPPLALSQLFNPDACGRRVQTVVLYGTVGTGKSTLVRKMVLDWCYGRLPAFELLIPFSCEDLSSLGPAPASLCQLVAQRYTPLKEVLPLMAAAGSHLLFVLHGLEHLNLDFRLAGTGLCSDPEEPQEPAAIIVNLLRKYMLPQASILVTTRPSAIGRIPSKYVGRYGEICGFSDTNLQKLYFQLRLNQPYCGYAVGGSGVSATPAQRDHLVQMLSRNLEGHHQIAAACFLPSYCWLVCATLHFLHAPTPAGQTLTSIYTSFLRLNFSGETLDSTDPSNLSLMAYAARTMGKLAYEGVSSRKTYFSEEDVCGCLEAGIRTEEEFQLLHIFRRDALRFFLAPCVEPGRAGTFVFTVPAMQEYLAALYIVLGLRKTTLQKVGKEVAELVGRVGEDVSLVLGIMAKLLPLRALPLLFNLIKVVPRVFGRMVGKSREAVAQAMVLEMFREEDYYNDDVLDQMGASILGVEGPRRHPDEPPEDEVFELFPMFMGGLLSAHNRAVLAQLGCPIKNLDALENAQAIKKKLGKLGRQVLPPSELLDHLFFHYEFQNQRFSAEVLSSLRQLNLAGVRMTPVKCTVVAAVLGSGRHALDEVNLASCQLDPAGLRTLLPVFLRARKLGLQLNSLGPEACKDLRDLLLHDQCQITTLRLSNNPLTAAGVAVLMEGLAGNTSVTHLSLLHTGLGDEGLELLAAQLDRNRQLQELNVAYNGAGDTAALALARAAREHPSLELLHLYFNELSSEGRQVLRDLGGAAEGGARVVVSLTEGTAVSEYWSVILSEVQRNLNSWDRARVQRHLELLLRDLEDSRGATLNPWRKAQLLRVEGEVRALLEQLGSSGS
B6: L2HGDH (protein, UniProt Q9H9P8 52-463, looked up)
L-2-hydroxyglutarate …: VIVGGGIVGLASARALILRHPSLSIGVLEKEKDLAVHQTGHNSGVIHSGIYYKPESLKAKLCVQGAALLYEYCQQKGISYKQCGKLIVAVEQEEIPRLQALYEKGLQNGVPGLRLIQQEDIKKKEPYCRGLMAIDCPHTGIVDYRQVALSFAQDFQEAGGSVLTNFEVKGIEMAKESPSRSIDGMQYPIVIKNTKGEEIRCQYVVTCAGLYSDRISELSGCTPDPRIVPFRGDYLLLKPEKCYLVKGNIYPVPDSRFPFLGVHFTPRMDGSIWLGPNAVLAFKREGYRPFDFSATDVMDIIINSGLIKLASQNFSYGVTEMYKACFLGATVKYLQKFIPEITISDILRGPAGVRAQALDRDGNLVEDFVFDAGVGDIGNRILHVRNAPSPAATSSIAISGMIADEVQQRFEL
B7: VANGL2 (protein, UniProt Q9ULK5 1-521, looked up)
Vang-like protein 2: MDTESQYSGYSYKSGHSRSSRKHRDRRDRHRSKSRDGGRGDKSVTIQAPGEPLLDNESTRGDERDDNWGETTTVVTGTSEHSISHDDLTRIAKDMEDSVPLDCSRHLGVAAGATLALLSFLTPLAFLLLPPLLWREELEPCGTACEGLFISVAFKLLILLLGSWALFFRRPKASLPRVFVLRALLMVLVFLLVVSYWLFYGVRILDARERSYQGVVQFAVSLVDALLFVHYLAVVLLELRQLQPQFTLKVVRSTDGASRFYNVGHLSIQRVAVWILEKYYHDFPVYNPALLNLPKSVLAKKVSGFKVYSLGEENSTNNSTGQSRAVIAAAARRRDNSHNEYYYEEAEHERRVRKRRARLVVAVEEAFTHIKRLQEEEQKNPREVMDPREAAQAIFASMARAMQKYLRTTKQQPYHTMESILQHLEFCITHDMTPKAFLERYLAAGPTIQYHKERWLAKQWTLVSEEPVTNGLKDGIVFLLKRQDFSLVVSTKKVPFFKLSEEFVDPKSHKFVMRLQSETSV
B8: IKZF4 (protein, UniProt Q9H2S9 1-585, looked up)
Zinc finger protein Eos: MHTPPALPRRFQGGGRVRTPGSHRQGKDNLERDPSGGCVPDFLPQAQDSNHFIMESLFCESSGDSSLEKEFLGAPVGPSVSTPNSQHSSPSRSLSANSIKVEMYSDEESSRLLGPDERLLEKDDSVIVEDSLSEPLGYCDGSGPEPHSPGGIRLPNGKLKCDVCGMVCIGPNVLMVHKRSHTGERPFHCNQCGASFTQKGNLLRHIKLHSGEKPFKCPFCNYACRRRDALTGHLRTHSVSSPTVGKPYKCNYCGRSYKQQSTLEEHKERCHNYLQSLSTEAQALAGQPGDEIRDLEMVPDSMLHSSSERPTFIDRLANSLTKRKRSTPQKFVGEKQMRFSLSDLPYDVNSGGYEKDVELVAHHSLEPGFGSSLAFVGAEHLRPLRLPPTNCISELTPVISSVYTQMQPLPGRLELPGSREAGEGPEDLADGGPLLYRPRGPLTDPGASPSNGCQDSTDTESNHEDRVAGVVSLPQGPPPQPPPTIVVGRHSPAYAKEDPKPQEGLLRGTPGPSKEVLRVVGESGEPVKAFKCEHCRILFLDHVMFTIHMGCHGFRDPFECNICGYHSQDRYEFSSHIVRGEHKVG
B9: IDH2 (protein, UniProt P48735 40-452, looked up)
Isocitrate dehydrogenase …: ADKRIKVAKPVVEMDGDEMTRIIWQFIKEKLILPHVDIQLKYFDLGLPNRDQTDDQVTIDSALATQKYSVAVKCATITPDEARVEEFKLKKMWKSPNGTIRNILGGTVFREPIICKNIPRLVPGWTKPITIGRHAHGDQYKATDFVADRAGTFKMVFTPKDGSGVKEWEVYNFPAGGVGMGMYNTDESISGFAHSCFQYAIQKKWPLYMSTKNTILKAYDGRFKDIFQEIFDKHYKTDFDKNKIWYEHRLIDDMVAQVLKSSGGFVWACKNYDGDVQSDILAQGFGSLGLMTSVLVCPDGKTIEAEAAHGTVTRHYREHQKGRPTSTNPIASIFAWTRGLEHRGKLDGNQDLIRFAQMLEKVCVETVESGAMTKDLAGCIHGLSNVKLNEHFLNTTDFLDTIKSNLDRALGRQ

Test system: BAF complex subunits and histone proteins
Assay: Mass spectrometry proteomics of purified HA-SS18 WT and HA-SS18-SSX1 complexes (Tables 5A-5E)
Set-up: species or system human
Conditions: HEK-293T
[1] = HA-SS18SSX1 purification, NE (soluble nuclear extract) fraction, peptides per identified protein
[2] = HA-SS18WT_NE_peptides: HA-SS18 WT complexes purified from nuclear extract (NE), label = protein identified (Gene Symbol)
[3] = HA-SS18WT_CHR_peptides: protein identified in HA-SS18 WT BAF complex purification from nuclease-treated solubilized chromatin (CHR)
[4] = HA-SS18WT_NE_peptides: proteins co-purified with HA-SS18 WT from nuclear extract (NE)

Row | Molecule | Total (total peptides) [1] | Unique (unique peptides) [1] | Total (peptides) [2] | Unique (peptides) [2] | Total (total peptides) [3] | Unique (unique peptides) [3] | Total (peptides) [4] | Unique (peptides) [4]
1 | B1 | 4 | 4 | 5 | 5 | – | – | – | –
2 | B2 | 4 | 4 | – | – | 2 | 2 | 2 | 2
3 | B3 | 4 | 4 | – | – | – | – | 1 | 1
4 | B4 | 4 | 4 | 3 | 3 | – | – | – | –
5 | B5 | 4 | 4 | 3 | 3 | – | – | – | –
6 | B6 | 4 | 4 | 5 | 4 | – | – | – | –
7 | B7 | 4 | 4 | – | – | – | – | – | –
8 | B8 | 4 | 3 | 3 | 3 | – | – | – | –
9 | B9 | 4 | 3 | 3 | 3 | – | – | – | –
